# PubChem BioAssay AID743454 – Peter MacCallum Cancer Centre – 2014
# Assay: 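Genes whose loss kills vorinostat-resistant colon cancer cells under vorinostat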 (primary screen)
# System: human HCT116-VR colon cancer cells, selected for vorinostat resistance
# Reagents: siRNA pool against human genes, 40 nM siRNA pool
# Duration: vorinostat for 24 h, read-out about 72 h after transfection
# Treatment: vorinostat at 2.5 µM final
# Detection: 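Two measures, CellTiter-Fluor viability and luminescent caspase 3/7 activity, each as fold change against same-plate mock wells, mean of duplicates, then screen-wide robust z-score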
# Reading the numbers: viability robust z-score: higher = more viable cells than screen typical; caspase robust z-score: higher = more caspase 3/7 activity than screen typical
# Rule for the call: 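a knock-down is a hit when classed RV1 or RV2 for lowered viability, or CA1 or CA2 for caspase activation; those lethal without drug were dropped; hits were retested singly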
# In all, the deposit lists about 18,000 reagents; shown is a random part of them. In the full data, 450 (2.5%) were called active. 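Single biological run; no consistent viability z cut-off exists, so the class columns, not z-scores, define the calls.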 Unmarked entries are inactive.
The first 2 entries as a preview:
Target gene,viability hit class,caspase hit class,viability robust z-score,caspase robust z-score
ASB9,no change,no change,-1,1.38
MRPS31,no change,no change,-0.26,-0.55

Results, repeating the preview:
Target gene,viability hit class,caspase hit class,viability robust z-score,caspase robust z-score
ASB9,no change,no change,-1,1.38
MRPS31,no change,no change,-0.26,-0.55
KCTD13,no change,no change,0.09,0.02
LINC02908,no change,no change,-1.04,-0.57
TGFB2,no change,no change,1.61,-0.24
ZFP82,no change,no change,-1.16,0.41
GPX5,no change,no change,1.12,-0.48
SNAP47,no change,no change,-0.82,-0.42
DHRS4L2,no change,no change,-0.52,-0.56
CSF1,no change,no change,0.4,0.81
SLC39A11,no change,no change,-0.06,1.73
ARRB2,no change,no change,1.8,0.25
RGPD1,no change,no change,0.26,1.21
TESC,no change,no change,-0.57,1.42
B3GALNT2,no change,no change,-0.1,3.22
GBP3,no change,no change,-2.23,2.99
RPL9,no change,no change,-3.48,-0.42
PLA2G4E,no change,no change,0.62,-0.59
OAS1,no change,no change,0,-0.29
POTED,no change,no change,-1.81,3.05
KCNB2,no change,no change,0.34,-0.44
ZFP36L1,no change,no change,-0.92,1.12
MINDY2,no change,no change,-0.64,-0.16
